Measurements: patent publication US20140303109A1 (priority 2010, published 2014)
Some of these results come from one statement about several compounds together. Some ranges recur; such a range may be that of the whole group of compounds.

Chains of the proteins cited; added tags and fusions are not shown. Lines headed by an entry give the natural chain unless they say otherwise; changes in a name come on top.
UniProt P20618: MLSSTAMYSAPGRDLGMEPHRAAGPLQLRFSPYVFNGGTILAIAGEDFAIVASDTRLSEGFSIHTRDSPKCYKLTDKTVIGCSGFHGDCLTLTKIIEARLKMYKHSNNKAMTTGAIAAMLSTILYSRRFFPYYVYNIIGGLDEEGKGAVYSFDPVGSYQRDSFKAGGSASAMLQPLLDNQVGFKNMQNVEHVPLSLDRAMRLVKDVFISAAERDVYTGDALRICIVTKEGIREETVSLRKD
UniProt P28074: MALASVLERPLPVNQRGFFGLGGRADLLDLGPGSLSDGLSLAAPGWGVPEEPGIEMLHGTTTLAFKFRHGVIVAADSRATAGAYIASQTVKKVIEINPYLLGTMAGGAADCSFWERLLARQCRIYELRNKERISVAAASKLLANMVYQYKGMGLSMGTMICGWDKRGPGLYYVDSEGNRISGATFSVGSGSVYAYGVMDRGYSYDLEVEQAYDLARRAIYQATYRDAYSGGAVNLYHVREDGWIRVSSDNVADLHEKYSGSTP

Key:
[1] = system: AsPC-1-GTR and MIAPaCa-2-GTR cells; assay: Clonogenic assay, gemcitabine/tarceva-resistant lines; type: cell-based, human; settings: 4 μmol/L CUR or CDF, 20 nmol/L GEM
cellular 26S proteasome = biological target: T1, cellular 26S proteasome (Homo sapiens, UniProt P20618+P28074); assay: Proteasomal chymotrypsin-like activity in treated HCT 116 cells; type: cell-based; settings: 10-30 μM, 24 h
T1 construct: host or cells: HCT 116 human colon cancer cells
Protocol: HCT 116 human colon cancer cells; human pancreatic carcinoma cell lines BxPC-3 and MIA PaCa-2, were purchased from American Type Culture Collection (Manassas, Va.) and grown in Dulbecco modified Eagle's medium supplemented with 10% fetal bovine serum (FBS), 100 units/ml of penicillin, and 100 μg/ml of streptomycin. Cells were maintained at 37° C. and 5% CO2. FBS was obtained from Tissue Culture Biologicals (Tulare, Calif.). Penicillin and streptomycin were purchased from Invitrogen Co. (Carlsbad, Calif.).
As a control, untreated cells were maintained in the solvent ethanol (E).

Row | SMILES | reduction of clonogenicity [1] | proteasome activity inhibited (cellular 26S proteasome)
1 | COc1cc(/C=C/C(=O)CC(=O)/C=C/c2ccc(O)c(OC)c2)ccc1O [CUR, (1E,6E)-1,7-bis(4-hydroxy-3-methoxyphenyl)hepta-1,6-diene-3,5-dione, reference compound] | 20-30% | 
2 | COc1cc(/C=C/C(=N\NC(=O)Nc2ccccc2)C(=Cc2ccc(F)c(F)c2)C(/C=C/c2ccc(O)c(OC)c2)=N/NC(=O)Nc2ccccc2)ccc1O [CDFI, (1E,6E)-1,7-bis(4-hydroxy-3-methoxyphenyl)hepta-1,6-diene{4(3,4 difluorobenzaldehyde)}-3,5 bis(4-phenyl) hydrazine carboxamide] |  | 23-42%
3 | Nc1ccn([C@@H]2O[C@H](CO)[C@@H](O)C2(F)F)c(=O)n1 [GEM, gemcitabine] | 20-30% | 
4 | COc1cc(/C=C/C(=N\NC(N)=S)C(=Cc2ccc(F)c(F)c2)C(/C=C/c2ccc(O)c(OC)c2)=N/NC(N)=S)ccc1O [CDFT, (1E,6E)-1,7-bis(4-hydroxy-3-methoxyphenyl)hepta-1,6-diene{4(3,4 difluorobenzaldehyde)}-3,5 bis hydrazine carbothioamide] |  | 23-42%
5 | COc1cc(/C=C/C(=N\NC(N)=O)C(=Cc2ccc(F)c(F)c2)C(/C=C/c2ccc(O)c(OC)c2)=N/NC(N)=O)ccc1O [CDFS, (1E,6E)-1,7-bis(4-hydroxy-3-methoxyphenyl)hepta-1,6-diene{4(3,4 difluorobenzaldehyde)}-3,5 bis hydrazine carboxamide] |  | 23-42%
6 | COc1cc(/C=C/C(=N\c2ccc(F)c(F)c2)C(=Cc2ccc(F)c(F)c2)C(/C=C/c2ccc(O)c(OC)c2)=N/c2ccc(F)c(F)c2)ccc1O [CDFA, (1E,6E)-1,7-bis(4-hydroxy-3-methoxyphenyl)hepta-1,6-diene{4(3,4 difluorobenzaldehyde)}-3,5 bis (3,4 difluroro)aniline] |  | 23-42%
